Assay results as given in patent US20100298415.
For some assays here: Results from cells or extracts need not show a direct contact. For some assays here: Where a protein sequence is shown, tags need not be part of it. For some assays here: The exact form of at least one protein or probe is not confirmed.

Protein sequences, listed by entry. Tags and fused reporters are not part of them. Lines headed by an entry give the natural chain unless they say otherwise; changes in a name come on top. Residues count along the entry.
UniProt O95863: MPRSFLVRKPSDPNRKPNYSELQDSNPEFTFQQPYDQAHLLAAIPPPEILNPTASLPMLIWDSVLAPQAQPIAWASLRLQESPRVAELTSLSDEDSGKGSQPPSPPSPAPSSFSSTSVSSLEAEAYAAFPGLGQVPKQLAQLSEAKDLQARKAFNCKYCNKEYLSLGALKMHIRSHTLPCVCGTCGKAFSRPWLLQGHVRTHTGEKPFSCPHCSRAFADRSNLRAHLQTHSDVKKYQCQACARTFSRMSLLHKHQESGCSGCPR
UniProt P19538, 451-603: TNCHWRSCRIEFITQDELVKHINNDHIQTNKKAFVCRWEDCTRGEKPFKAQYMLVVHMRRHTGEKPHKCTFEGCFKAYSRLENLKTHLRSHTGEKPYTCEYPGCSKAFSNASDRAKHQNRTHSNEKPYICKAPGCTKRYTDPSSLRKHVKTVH

Assays:
[1] = target: Snail1 (UniProt O95863); test: activity in cells; conditions: PS three linkages at 5' and 3' ends of both strands; 5' C6 amino linker conjugated to Co(III) Schiff base; E-cadherin promoter luciferase derepression, up to 250 nM; protein in cells; protein details: endogenous in MDA-MB-231 cells; only the site is given
[2] = target: Ci (Cubitus interruptus) zinc finger region (UniProt P19538); test: competition with a labelled probe; conditions: conjugated to Co(III) Schiff base; 1e-12 to 1e-7 M Co(III)-Gli, clear inhibition of DNA binding; oligo sequence assigned from listing (FIG. 9); protein in a lysate after overexpression; protein details: transfected Drosophila S2 cell lysate
[3] = system: MitF; test: EMSA; conditions: legend says Slug probe, methods list MitF probe; binding not inhibited by 1 uM Co(III)-Ebox; protein in a lysate after overexpression; protein details: mRNA-injected Xenopus blastula embryo lysate; label: 32P 5' end
[4] = system: Lef-1; test: EMSA; conditions: legend says Slug probe, methods list Lef-1 probe; binding not inhibited by 1 uM Co(III)-Ebox; protein in a lysate after overexpression; protein details: mRNA-injected Xenopus blastula embryo lysate; label: 32P 5' end
[5] = system: p105 (NF-kB); test: EMSA; conditions: legend says Slug probe, methods list NF-kB probe; binding not inhibited by 1 uM Co(III)-Ebox; protein in a lysate after overexpression; protein details: mRNA-injected Xenopus blastula embryo lysate; label: 32P 5' end
[6] = target: T1, Sip1 (XSip1) (Xenopus laevis) (UniProt Q5U4S2); test: EMSA; conditions: embryo lysate, 32P Slug probe; protein in a lysate after overexpression; label: 32P 5' end
T1 sequence (looked up, limits assumed): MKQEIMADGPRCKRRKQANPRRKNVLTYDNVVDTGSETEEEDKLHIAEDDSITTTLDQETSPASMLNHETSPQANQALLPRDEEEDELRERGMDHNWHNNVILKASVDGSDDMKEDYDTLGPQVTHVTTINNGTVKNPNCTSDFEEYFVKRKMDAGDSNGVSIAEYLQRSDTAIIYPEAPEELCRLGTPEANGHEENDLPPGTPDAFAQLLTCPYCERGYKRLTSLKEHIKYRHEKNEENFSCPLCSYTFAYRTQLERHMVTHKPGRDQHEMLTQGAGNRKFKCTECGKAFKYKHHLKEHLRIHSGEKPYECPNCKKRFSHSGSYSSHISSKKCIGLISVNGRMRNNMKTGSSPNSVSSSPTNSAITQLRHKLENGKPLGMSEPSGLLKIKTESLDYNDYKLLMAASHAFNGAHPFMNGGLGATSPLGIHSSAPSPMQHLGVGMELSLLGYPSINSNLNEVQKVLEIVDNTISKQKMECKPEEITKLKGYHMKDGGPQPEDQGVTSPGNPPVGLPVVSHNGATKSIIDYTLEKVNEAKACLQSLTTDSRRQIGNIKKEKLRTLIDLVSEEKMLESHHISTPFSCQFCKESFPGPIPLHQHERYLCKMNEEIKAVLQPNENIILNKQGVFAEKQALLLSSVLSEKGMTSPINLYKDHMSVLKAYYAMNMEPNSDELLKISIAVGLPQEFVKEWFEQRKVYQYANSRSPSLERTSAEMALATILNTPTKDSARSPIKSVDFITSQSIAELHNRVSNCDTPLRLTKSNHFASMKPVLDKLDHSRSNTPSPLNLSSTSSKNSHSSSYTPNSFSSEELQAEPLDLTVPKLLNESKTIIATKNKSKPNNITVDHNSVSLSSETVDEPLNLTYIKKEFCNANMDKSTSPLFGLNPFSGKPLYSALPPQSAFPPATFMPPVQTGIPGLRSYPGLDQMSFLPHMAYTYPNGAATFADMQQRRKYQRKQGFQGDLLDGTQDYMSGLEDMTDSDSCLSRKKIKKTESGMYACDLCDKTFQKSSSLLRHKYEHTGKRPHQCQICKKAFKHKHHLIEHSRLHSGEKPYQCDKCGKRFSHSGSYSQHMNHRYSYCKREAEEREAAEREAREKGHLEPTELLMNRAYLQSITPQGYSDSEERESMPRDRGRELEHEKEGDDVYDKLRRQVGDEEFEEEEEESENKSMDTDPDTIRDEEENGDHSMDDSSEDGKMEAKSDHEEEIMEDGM

[7] = target: T2, Snail (Snail1) (UniProt P19382); test: EMSA; conditions: embryo lysate, 32P Slug probe; protein in a lysate after overexpression; label: 32P 5' end
T2 sequence (looked up, limits assumed): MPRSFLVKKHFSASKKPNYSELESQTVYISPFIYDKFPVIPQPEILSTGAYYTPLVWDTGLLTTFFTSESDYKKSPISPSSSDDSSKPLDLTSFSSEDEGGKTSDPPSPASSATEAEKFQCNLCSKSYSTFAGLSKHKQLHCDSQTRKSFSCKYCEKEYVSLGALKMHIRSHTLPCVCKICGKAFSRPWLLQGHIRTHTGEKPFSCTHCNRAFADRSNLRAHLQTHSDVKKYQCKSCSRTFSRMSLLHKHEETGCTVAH

[8] = target: T3, Slug (Snail2) (UniProt Q91924); test: EMSA; conditions: embryo lysate, poly dI/dC, 0.2 mM ZnSO4, room temperature; protein in a lysate after overexpression; label: 32P 5' end
T3 sequence (looked up, limits assumed): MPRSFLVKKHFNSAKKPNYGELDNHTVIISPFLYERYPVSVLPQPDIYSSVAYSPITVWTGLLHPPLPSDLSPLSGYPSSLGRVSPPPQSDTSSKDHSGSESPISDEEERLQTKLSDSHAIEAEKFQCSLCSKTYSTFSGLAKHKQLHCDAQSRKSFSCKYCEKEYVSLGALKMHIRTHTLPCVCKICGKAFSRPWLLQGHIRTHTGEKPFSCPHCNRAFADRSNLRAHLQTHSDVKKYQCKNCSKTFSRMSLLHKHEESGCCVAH

For “TACGACAGGTGTTGGGA (double strand) [Co(III)-Ebox]”, the “activity on this sequence” value [1] was “active”.
“CTACCTGGGTGGTCTCT (double strand) [Co(III)-Gli]”: binds [2].
CAGGTG (double strand) [MitF probe]: binds [3].
“TCGAATTCTCACCCTTTGAAGCTCTT (double strand) [Lef-1 probe]”: binds [4].
“GCCTGGGAAAGTCCCCTCAACT (double strand) [NF-kB probe (Promega)]”: binds [5].
“TGTTTCCATCCCAACACCTGTCGTATACAA (double strand) [Slug probe]”: binds [6]; binds [7]; binds [8].
